Measurements taken from PubChem BioAssay AID540303 (National Center for Advancing Translational Sciences (NCATS), 2011).
In all, about 330,000 compounds went through this assay and about 1,000 (0.3%) were called active. This list was built around the results that the source calls inconclusive (neither active nor inactive); the mix of calls is not that of the screen. Calls follow the shape of the dose curve; as a rule, active = well fitted inhibition curve with a large enough effect; inconclusive = small, poorly fitted or top-dose-only effect; inactive = no such curve, though single readings can be large or run the other way; tested in mouse RAW 264.7 cells. Potencies of inconclusive entries are doubtful fits and often do not repeat.
Potency is read from the fitted curve at half-maximal effect.

Assay: qHTS for Inhibitors of Cell Surface uPA Generation; also: nearly all actives have a fitted effect of over 55% in size
Settings: cell surface uPA generation assay; series mostly up to 38.3 µM
Method in brief: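 RAW 264.7 cells (4000/well) were plated overnight at 37 C and then given compounds in a 1:5 series (up to 38.3 uM final) plus reagent for 24 h. Intracellular ATP was measured by ATP-Lite luminescence and stays elevated when uPA-dependent LF entry is blocked.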
In the case of `Cn1nc(-c2ccc(OCC(=O)N3CCN(Cc4ccccc4)CC3)cc2)c2ccccc2c1=O`, the Potency is reported as inconclusive: 11.2 µM [inhibitor, partial curve, poor fit]. In the case of `COc1ccc(-c2c(-c3cc(OC)cc(OC)c3)n(C)c3ccc(-c4ccc(S(N)(=O)=O)cc4)cc23)cc1`, the Potency is reported as inconclusive: 12.6 µM [inhibitor, single point]. In the case of `CN1[C@@H]2CC[C@H]1CC(OC1c3ccccc3CCc3ccccc31)C2` (some centres undefined), the Potency is reported as inconclusive: 10 µM [inhibitor, single point]. For `COc1cc2c(cc1OC)-c1c(OC)c(OC)cc3c1[C@H](C2)N(C)CC3`, the Potency was inconclusive: 5.01 µM [inhibitor, partial curve, poor fit]. For `O=C1C(=O)c2ccccc2-c2ccccc21`, the Potency was inconclusive: 1.41 µM [inhibitor, full curve, poor fit]. With `Cc1cccc(-n2ncc3c(NCCCO)ncnc32)c1` the Potency was active: 1.78 µM. With `Cc1c(C=C2C(=O)N(C)C(=S)N(C)C2=O)c2ccccc2n1CC(=O)NCC1CCCO1` (centres undefined) the Potency was “inactive”. With `COC(=O)C1=C(c2cccc(OCc3ccccc3)c2)C[C@@H]2CC[C@H]1N2C(=O)NCc1ccc(F)cc1` the Potency was inconclusive: 12.6 µM [inhibitor, single point]. For `COC(=O)C1=C(c2ccc(F)cc2OCc2ccccc2)C[C@@H]2CC[C@H]1N2C(=O)NCc1ccccc1Cl`, the Potency was inconclusive: 11.2 µM [inhibitor, partial curve]. For `CCN(CC)C(=O)c1ccc(NC(=O)CCCSc2ccccc2)cc1`, the Potency was “inactive”. With `COc1ccccc1C1=CC(=O)C[C@H](c2ccc3c(c2)OCO3)C1` the Potency was inconclusive: 8.91 µM [inhibitor, partial curve, poor fit]. For `COc1cc2c(c(OC)c1OC)-c1ccc(O)cc1C(NC(C)=O)CC2` (centres undefined), the Potency was “inactive”. For `COc1ccc(-c2cn(Cc3ccc(C(=O)c4ccccc4)cc3)nn2)cc1`, the Potency was inconclusive: 28.2 µM [inhibitor, single point]. With `C#CCOCCOCCOCCNc1nc(N2CCN(C(=O)CCCCCCCCCCNC(=O)[C@H]([C@@H](C)CC)n3cc(CCCCN=C(N)N)nn3)CC2)nc(N2CCN(C(=O)CCCCCCCCCCNC(=O)[C@H](CO)n3cc(CCCCCN)nn3)CC2)n1` the Potency was inconclusive: 28.2 µM [inhibitor, single point]. With `COC(=O)N/N=C/c1cc(C)n(-c2ccccc2)c1C` the Potency was inconclusive: 10 µM [inhibitor, single point]. For `O=C1NC(=S)NC(=O)C1=Cc1cccn1-c1ccc(O)cc1`, the Potency was inconclusive: 7.08 µM [inhibitor, partial curve, poor fit]. In the case of `Cc1cn([C@@H](CCCCNC(=O)OC(C)(C)C)C(=O)NCCCCCCCCCCC(=O)N2CCN(C(=O)OC(C)(C)C)CC2)nn1`, the Potency is reported as inconclusive: 12.6 µM [inhibitor, single point]. For `COC1=CC(=O)CC(C)C12Oc1c(Cl)c(OC)cc(OC)c1C2=O` (centres undefined), the Potency was inconclusive: 8.91 µM [inhibitor, partial curve]. For `CCC(=O)Nc1nc2ccccc2n1Cc1ccc(Cl)cc1`, the Potency was inconclusive: 10 µM [inhibitor, partial curve, poor fit]. With `O=[N+]([O-])c1ccc(N=Nc2c(Cl)cc(O)cc2Cl)cc1` the Potency was inconclusive: 3.55 µM [inhibitor, partial curve, poor fit]. For `O=C1NC(=O)N(CCC2=CCCCC2)C(=O)/C1=C/c1ccc(O)cc1`, the Potency was “inactive”. In the case of `CCCCNC(=O)c1onc(CCl)c1C(=O)OC`, the Potency is reported as inconclusive: 11.2 µM [inhibitor, single point]. For `CCN(CC)P(=S)(c1c(C)nc2ccccn12)c1c(C)nc2ccccn12`, the Potency was inconclusive: 31.6 µM [inhibitor, single point]. With `COc1ccc(CN2C(=O)NC(=O)/C(=C\c3cccc(OC)c3OC)C2=O)cc1` the Potency was “inactive”. With `O=[N+]([O-])c1ccc2nc(N3CCNCC3)ccc2c1` the Potency was inconclusive: 12.6 µM [inhibitor, single point]. With `CCn1c(P(C)(=O)O)nc2ccccc21` the Potency was “inactive”. With `COC(=O)C1=C(c2cccc(OCc3ccccc3)c2)C[C@@H]2CC[C@H]1N2C(=O)NCCCc1ccccc1` the Potency was inconclusive: 8.91 µM [inhibitor, partial curve, poor fit]. In the case of `Cc1nn(Cc2ccccc2)c(Cl)c1C(=O)OC(C)C(=O)Nc1ccc(F)cc1Cl` (centres undefined), the Potency is reported as inconclusive: 2.51 µM [inhibitor, full curve, poor fit]. In the case of `CN(C)S(=O)(=O)N1CCC(Oc2cccc(C(=O)NCCC3=CCCCC3)c2)CC1`, the Potency is reported as inconclusive: 12.6 µM [inhibitor, single point]. For `COc1ccccc1S(=O)(=O)Cc1ccc(C(=O)N2CCN(c3ccc(C)cc3)C(C)C2)o1` (centres undefined), the Potency was inconclusive: 11.2 µM [inhibitor, single point]. With `Cc1nc2ccccc2c2oc(C(=O)N3CCN(C4CCCCC4)CC3)cc12` the Potency was inconclusive: 11.2 µM [inhibitor, single point]. For `CCc1ccc(N2C(=O)NC(=O)/C(=C\C=C\c3ccco3)C2=O)cc1`, the Potency was active: 8.91 µM. With `O=C1C=C2C=C[C@@H]3CC2(O1)[C@H]1CCCCN31` the Potency was inconclusive: 5.01 µM [inhibitor, partial curve, poor fit]. With `CC(C)(C)NC(=O)[C@@H]1C[C@@H]2CCCC[C@@H]2CN1C[C@@H](O)[C@H](Cc1ccccc1)NC(=O)[C@H](CC(N)=O)NC(=O)c1ccc2ccccc2n1` the Potency was inconclusive: 12.6 µM [inhibitor, single point]. For `COC(=O)C1=C(c2ccc(F)cc2OCc2ccccc2)C[C@@H]2CC[C@H]1N2C(=O)NCCOc1ccccc1Cl`, the Potency was inconclusive: 12.6 µM [inhibitor, single point]. For `COc1ccccc1-n1c(-c2cccs2)nc2ccccc2c1=O`, the Potency was “inactive”. With `CC(C)N(C(=O)CCl)c1ccccc1` the Potency was active: 6.31 µM. For `CCOC(=O)C(O)(c1ccc(N(C)C(=O)COc2ccccc2)cc1)C(F)(F)F` (centres undefined), the Potency was “inactive”. In the case of `O=[N+]([O-])c1ccccc1-c1cc(-c2ccccc2)cc(-c2ccccc2)[n+]1Cc1ccccc1Cl`, the Potency is reported as inconclusive: 10 µM [inhibitor, single point].
